From patent US11925455B2, “Methods for diagnosing malaria” (Washington University, priority 2017, dated 2024)

Experiment: z-scores of the six VOCs most correlated with malaria status in breath (Cohort 1)
Set-up: species or system human

## Isoprene
  concentration in breath of malaria positive individuals compared to controls: lowered abundance
